The supplement of paper PMC10849652
The list shows a part of the results.

Amino acid sequences for entries named in this document (tags omitted). A change or cut given only in a name is not applied to a line headed by its entry.
UniProt O14933: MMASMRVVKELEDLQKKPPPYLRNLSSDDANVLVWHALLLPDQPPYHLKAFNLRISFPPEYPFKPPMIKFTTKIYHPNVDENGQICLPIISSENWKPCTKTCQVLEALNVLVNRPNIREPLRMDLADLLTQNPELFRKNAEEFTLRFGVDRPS
UniProt O95155, whole entry, looked up: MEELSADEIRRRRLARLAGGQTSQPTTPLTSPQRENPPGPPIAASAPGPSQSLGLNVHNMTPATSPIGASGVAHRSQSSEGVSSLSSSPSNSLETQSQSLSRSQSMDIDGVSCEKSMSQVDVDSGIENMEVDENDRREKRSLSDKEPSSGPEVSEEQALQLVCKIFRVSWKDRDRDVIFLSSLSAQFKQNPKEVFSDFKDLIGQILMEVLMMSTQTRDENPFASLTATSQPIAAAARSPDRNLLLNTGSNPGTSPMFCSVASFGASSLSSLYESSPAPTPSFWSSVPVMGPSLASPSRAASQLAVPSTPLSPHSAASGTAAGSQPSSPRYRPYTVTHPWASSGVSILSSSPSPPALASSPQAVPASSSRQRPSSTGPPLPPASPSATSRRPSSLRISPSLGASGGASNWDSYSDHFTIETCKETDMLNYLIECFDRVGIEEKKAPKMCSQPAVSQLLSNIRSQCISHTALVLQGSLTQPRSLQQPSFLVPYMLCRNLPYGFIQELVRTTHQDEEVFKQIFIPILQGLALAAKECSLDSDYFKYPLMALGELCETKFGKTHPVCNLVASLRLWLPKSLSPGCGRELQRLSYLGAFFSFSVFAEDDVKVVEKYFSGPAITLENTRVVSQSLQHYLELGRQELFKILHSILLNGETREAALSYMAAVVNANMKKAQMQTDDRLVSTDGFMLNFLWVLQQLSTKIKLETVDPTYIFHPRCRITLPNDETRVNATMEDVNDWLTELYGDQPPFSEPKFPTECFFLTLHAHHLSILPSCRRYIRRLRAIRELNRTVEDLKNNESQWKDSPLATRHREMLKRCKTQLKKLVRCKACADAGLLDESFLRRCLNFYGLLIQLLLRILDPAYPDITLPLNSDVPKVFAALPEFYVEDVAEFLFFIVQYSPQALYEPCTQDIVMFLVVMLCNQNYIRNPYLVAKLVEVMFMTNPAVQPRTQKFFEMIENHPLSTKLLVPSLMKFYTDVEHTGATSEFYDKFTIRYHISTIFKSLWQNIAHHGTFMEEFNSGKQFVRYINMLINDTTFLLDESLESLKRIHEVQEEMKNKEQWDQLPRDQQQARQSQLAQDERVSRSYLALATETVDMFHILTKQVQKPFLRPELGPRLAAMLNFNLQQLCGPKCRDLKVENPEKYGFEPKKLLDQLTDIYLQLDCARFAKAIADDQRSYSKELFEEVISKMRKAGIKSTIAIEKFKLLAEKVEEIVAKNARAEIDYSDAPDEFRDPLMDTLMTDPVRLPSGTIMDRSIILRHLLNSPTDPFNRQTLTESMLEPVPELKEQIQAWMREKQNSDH
UniProt Q16222: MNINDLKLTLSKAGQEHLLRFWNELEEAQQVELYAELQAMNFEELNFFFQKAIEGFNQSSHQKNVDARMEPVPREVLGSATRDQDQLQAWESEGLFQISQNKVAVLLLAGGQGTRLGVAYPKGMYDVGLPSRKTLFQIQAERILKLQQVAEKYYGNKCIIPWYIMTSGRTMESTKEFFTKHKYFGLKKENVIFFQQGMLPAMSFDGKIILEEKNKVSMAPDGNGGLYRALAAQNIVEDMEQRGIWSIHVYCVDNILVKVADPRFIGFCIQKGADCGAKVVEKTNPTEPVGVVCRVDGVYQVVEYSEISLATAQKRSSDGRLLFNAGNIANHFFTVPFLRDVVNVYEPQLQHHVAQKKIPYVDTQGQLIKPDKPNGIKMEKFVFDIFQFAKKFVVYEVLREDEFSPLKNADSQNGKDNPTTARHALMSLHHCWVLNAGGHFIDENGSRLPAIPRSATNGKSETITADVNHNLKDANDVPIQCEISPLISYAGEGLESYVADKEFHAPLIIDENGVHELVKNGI
UniProt Q15819: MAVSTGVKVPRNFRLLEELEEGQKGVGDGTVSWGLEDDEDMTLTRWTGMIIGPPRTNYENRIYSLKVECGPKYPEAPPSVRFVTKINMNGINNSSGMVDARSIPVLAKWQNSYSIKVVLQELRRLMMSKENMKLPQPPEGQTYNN
UniProt P68371, whole entry, looked up: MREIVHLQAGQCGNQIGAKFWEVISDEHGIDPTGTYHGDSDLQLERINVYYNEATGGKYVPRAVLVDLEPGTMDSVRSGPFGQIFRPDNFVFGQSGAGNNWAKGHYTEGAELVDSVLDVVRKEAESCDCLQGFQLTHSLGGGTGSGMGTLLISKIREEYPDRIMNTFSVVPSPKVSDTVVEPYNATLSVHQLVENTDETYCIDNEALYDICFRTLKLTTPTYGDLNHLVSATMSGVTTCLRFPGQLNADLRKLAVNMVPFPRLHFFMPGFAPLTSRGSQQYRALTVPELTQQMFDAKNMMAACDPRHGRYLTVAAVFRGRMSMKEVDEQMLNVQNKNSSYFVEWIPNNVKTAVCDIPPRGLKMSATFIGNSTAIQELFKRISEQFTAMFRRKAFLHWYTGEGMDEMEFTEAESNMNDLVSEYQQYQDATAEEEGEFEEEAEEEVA
UniProt Q9NX01: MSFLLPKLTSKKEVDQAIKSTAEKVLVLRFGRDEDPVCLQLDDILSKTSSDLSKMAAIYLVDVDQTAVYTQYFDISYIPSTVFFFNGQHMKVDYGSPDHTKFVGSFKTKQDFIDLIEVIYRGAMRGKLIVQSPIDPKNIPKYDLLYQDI
UniProt Q14157: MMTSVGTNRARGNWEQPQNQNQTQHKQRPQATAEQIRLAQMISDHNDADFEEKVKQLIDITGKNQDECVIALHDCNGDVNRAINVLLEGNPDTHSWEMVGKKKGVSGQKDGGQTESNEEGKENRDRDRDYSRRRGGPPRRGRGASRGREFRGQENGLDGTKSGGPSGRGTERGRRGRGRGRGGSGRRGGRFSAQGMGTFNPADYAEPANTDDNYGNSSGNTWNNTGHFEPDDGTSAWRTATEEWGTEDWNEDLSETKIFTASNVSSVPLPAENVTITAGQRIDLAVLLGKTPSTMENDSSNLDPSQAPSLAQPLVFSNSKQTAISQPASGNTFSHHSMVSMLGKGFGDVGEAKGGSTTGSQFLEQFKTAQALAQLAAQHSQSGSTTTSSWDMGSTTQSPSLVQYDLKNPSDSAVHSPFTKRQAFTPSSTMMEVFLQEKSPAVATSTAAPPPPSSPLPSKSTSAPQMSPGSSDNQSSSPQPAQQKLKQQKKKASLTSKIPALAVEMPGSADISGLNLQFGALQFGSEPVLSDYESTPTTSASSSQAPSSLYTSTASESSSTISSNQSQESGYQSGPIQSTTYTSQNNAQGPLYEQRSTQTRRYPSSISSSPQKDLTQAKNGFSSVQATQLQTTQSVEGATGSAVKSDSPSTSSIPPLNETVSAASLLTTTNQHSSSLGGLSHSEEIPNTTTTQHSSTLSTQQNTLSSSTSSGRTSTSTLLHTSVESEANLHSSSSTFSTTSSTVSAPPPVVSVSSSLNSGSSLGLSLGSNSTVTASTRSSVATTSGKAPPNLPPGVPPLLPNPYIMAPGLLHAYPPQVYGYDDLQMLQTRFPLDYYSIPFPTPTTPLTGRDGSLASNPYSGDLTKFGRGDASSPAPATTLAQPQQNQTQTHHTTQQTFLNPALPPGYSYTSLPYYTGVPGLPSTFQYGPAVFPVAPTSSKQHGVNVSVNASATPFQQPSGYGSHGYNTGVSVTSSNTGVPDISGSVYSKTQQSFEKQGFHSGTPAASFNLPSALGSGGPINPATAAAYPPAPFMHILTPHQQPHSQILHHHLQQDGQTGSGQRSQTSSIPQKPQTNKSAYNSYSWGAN
UniProt Q96S82: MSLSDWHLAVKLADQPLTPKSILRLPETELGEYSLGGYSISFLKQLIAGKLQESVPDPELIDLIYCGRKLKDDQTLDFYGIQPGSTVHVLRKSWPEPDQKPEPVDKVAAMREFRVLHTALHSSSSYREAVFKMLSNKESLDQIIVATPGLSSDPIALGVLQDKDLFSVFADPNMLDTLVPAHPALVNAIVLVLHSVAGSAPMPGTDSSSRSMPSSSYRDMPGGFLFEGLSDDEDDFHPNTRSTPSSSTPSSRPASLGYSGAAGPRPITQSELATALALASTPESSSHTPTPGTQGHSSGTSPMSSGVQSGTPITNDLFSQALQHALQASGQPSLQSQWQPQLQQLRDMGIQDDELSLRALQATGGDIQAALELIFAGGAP
UniProt P68366, whole entry, looked up: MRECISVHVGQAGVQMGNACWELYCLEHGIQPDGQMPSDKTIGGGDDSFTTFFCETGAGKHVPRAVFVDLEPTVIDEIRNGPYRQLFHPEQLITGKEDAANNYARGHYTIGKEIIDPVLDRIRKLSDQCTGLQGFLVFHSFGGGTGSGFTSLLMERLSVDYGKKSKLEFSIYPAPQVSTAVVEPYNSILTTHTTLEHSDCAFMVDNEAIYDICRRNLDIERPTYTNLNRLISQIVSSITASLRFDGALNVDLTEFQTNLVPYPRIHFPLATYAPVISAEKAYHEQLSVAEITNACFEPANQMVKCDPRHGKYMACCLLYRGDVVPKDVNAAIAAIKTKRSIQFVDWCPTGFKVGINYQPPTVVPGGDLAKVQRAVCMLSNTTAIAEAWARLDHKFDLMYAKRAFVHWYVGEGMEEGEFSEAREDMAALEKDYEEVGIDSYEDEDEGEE
UniProt P17480: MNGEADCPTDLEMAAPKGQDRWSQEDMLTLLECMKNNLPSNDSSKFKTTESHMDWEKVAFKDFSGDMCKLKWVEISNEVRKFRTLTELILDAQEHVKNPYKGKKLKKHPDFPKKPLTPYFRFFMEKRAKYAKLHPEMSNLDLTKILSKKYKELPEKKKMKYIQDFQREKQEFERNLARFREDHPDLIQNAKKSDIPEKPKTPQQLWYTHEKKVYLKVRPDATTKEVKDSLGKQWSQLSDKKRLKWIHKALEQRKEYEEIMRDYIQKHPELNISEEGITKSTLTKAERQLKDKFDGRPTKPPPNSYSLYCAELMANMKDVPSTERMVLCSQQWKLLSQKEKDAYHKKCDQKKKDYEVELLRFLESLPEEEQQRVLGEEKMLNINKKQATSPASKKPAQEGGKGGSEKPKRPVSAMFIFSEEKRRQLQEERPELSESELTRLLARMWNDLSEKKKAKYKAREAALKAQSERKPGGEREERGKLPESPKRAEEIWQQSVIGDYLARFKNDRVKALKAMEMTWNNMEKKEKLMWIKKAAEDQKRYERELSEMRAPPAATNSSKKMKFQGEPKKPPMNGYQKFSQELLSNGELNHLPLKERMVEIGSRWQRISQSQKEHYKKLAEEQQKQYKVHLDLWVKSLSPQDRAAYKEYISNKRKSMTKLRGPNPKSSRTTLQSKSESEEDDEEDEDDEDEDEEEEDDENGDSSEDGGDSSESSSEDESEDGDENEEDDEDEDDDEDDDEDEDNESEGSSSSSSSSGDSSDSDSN
UniProt Q9BSJ2, whole entry, looked up: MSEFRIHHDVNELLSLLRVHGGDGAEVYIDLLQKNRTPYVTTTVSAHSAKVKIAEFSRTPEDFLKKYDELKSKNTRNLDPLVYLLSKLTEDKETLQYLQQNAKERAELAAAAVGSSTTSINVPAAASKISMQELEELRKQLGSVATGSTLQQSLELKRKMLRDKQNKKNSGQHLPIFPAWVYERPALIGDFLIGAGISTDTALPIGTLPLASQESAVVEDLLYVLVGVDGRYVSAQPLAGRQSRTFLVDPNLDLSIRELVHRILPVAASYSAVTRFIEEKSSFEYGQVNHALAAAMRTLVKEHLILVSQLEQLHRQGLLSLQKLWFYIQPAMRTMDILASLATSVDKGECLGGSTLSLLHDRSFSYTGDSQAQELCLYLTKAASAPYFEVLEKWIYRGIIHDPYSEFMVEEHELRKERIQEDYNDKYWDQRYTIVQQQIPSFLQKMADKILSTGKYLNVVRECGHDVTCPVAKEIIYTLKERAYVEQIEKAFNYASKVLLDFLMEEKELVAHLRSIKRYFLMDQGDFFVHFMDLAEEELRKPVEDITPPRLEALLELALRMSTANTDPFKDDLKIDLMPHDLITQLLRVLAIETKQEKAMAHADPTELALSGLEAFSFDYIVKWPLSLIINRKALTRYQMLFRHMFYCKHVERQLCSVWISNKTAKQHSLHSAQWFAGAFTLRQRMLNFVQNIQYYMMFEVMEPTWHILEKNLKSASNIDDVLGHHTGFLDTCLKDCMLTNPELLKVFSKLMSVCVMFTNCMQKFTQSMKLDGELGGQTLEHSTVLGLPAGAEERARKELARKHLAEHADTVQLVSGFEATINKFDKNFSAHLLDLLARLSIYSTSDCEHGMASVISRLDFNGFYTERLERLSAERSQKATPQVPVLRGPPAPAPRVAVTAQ
UniProt P15374: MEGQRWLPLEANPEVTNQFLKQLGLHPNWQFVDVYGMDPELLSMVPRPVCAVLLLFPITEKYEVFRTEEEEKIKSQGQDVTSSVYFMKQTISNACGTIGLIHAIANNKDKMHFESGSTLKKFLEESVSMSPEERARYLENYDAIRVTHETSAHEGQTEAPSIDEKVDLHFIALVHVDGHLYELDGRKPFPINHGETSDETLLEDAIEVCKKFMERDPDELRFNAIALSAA

Columns and labels:
Experiment in all cases: log2 fold change, soluble protein after heating vs DMSO (PISA); higher = thermal stabilisation; K562 lysate, 10 uM; active = over 0.2 and 3.5 SD of the protein, either way, in both replicates (recomputed)
vemurafenib = compound: CCCS(=O)(=O)Nc1ccc(F)c(C(=O)c2c[nH]c3ncc(-c4ccc(Cl)cc4)cc23)c1F [vemurafenib]
Summary of the method: (§1)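 Following dounce homogenisation of K562 pellets in PBS pH 7.4 with 1 mM MgCl2, crude extract at 1 mg/mL protein was incubated for 30 min with 10 μM compound. Aliquots were then heated for 3 min over 48°C-58°C and pooled, NP-40 was added to 0.5% at 4°C, and soluble protein was recovered as the supernatant at 21,000xg for 90 min. Channel-sum-equalised TMTpro 16plex LC-MS/MS quantified this protein. Each value, from duplicates, is a log-two fold change in thermal stability relative to solvent controls.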

[1] = compound: CCCS(=O)(=O)Nc1ccc(F)c(C(=O)c2c[nH]c3ncc(Cl)cc23)c1F
Summary of the method: as §1

barasertib = compound: CCN(CCCOc1ccc2c(Nc3cc(CC(=O)Nc4cccc(F)c4)[nH]n3)ncnc2c1)CCOP(=O)(O)O [barasertib]
Summary of the method: as §1

[2] = compound: CC[C@@H]1C(=O)N(C)c2cnc(Nc3ccc(C(=O)NC4CCN(C)CC4)cc3OC)nc2N1C1CCCC1
Summary of the method: as §1

volasertib = compound: CC[C@@H]1C(=O)N(C)c2cnc(Nc3ccc(C(=O)N[C@H]4CC[C@H](N5CCN(CC6CC6)CC5)CC4)cc3OC)nc2N1C(C)C [volasertib]
Summary of the method: as §1

[3] = compound: CCn1c(C(=O)N(C2CC2)C2CC2)cc2c3c(ncn3C)c(Nc3cc(C)n(C)n3)nc21
Summary of the method: as §1

[4] = compound: CCn1cc(-c2ccnc3[nH]c(-c4cccc(CN(C)C)c4)cc23)c(-c2ccc(NC(=O)N(C)C)cc2)n1
Summary of the method: as §1

[5] = compound: CN1CCC(CNc2ccc3ncc(-c4cccc(OC(F)(F)F)c4)n3n2)CC1
Summary of the method: as §1

saracatinib = compound: CN1CCN(CCOc2cc(OC3CCOCC3)c3c(Nc4c(Cl)ccc5c4OCO5)ncnc3c2)CC1 [saracatinib]
Summary of the method: as §1

sotrastaurin = compound: CN1CCN(c2nc(C3=C(c4c[nH]c5ccccc45)C(=O)NC3=O)c3ccccc3n2)CC1 [sotrastaurin]
Summary of the method: as §1

Measured: log2 fold change

UBE3C (UniProt Q15386)
inactive: vemurafenib -0.001 | [1] 0.006 | barasertib 0.016 | [2] -0.021 | volasertib -0.073 | [3] 0.086 | [4] -0.075 | [5] 0.002 | saracatinib 0.04 | sotrastaurin 0.03

UBXN2B (UniProt Q14CS0)
inactive: vemurafenib 0.148 | [1] 0.049 | barasertib 0.147 | [2] 0.065 | volasertib -0.066 | [3] -0.035 | [4] -0.142 | [5] 0.074 | saracatinib -0.068

TWF2 (UniProt Q6IBS0)
inactive: vemurafenib -0.009 | [1] -0.002 | barasertib -0.015 | [2] 0.018 | volasertib 0 | [3] -0.047 | [4] -0.1 | [5] 0.076 | saracatinib 0.006 | sotrastaurin 0.014

UBE2L6 (UniProt O14933)
inactive: vemurafenib 0.031 | [1] -0.035 | barasertib 0.229 | [2] 0.041 | volasertib 0.008 | [3] 0.022 | [4] 0.037 | [5] -0.115 | saracatinib -0.034 | sotrastaurin -0.03

TWISTNB (UniProt Q3B726)
inactive: vemurafenib 0.079 | [1] 0.077 | barasertib -0.055 | [2] 0.023 | volasertib -0.049 | [3] 0.006 | [4] 0.162 | [5] -0.05 | saracatinib 0.033 | sotrastaurin -0.019

UBE4B isoform 4 (UniProt O95155)
inactive: vemurafenib 0.022 | [1] 0.009 | barasertib 0.029 | [2] 0.026 | volasertib -0.025 | [3] 0.011 | [4] -0.007 | [5] -0.003 | saracatinib 0.007 | sotrastaurin -0.012

UBE2S (UniProt Q16763)
inactive: vemurafenib 0.016 | [1] 0.019 | barasertib 0.029 | [2] 0.014 | volasertib -0.019 | [3] -0.005 | [4] -0.059 | [5] 0.032 | saracatinib 0.024 | sotrastaurin 0.012

UAP1 (UniProt Q16222)
inactive: vemurafenib 0.009 | [1] -0.013 | barasertib 0.006 | [2] -0.071 | volasertib -0.04 | [3] 0.02 | [4] -0.027 | [5] 0.003 | saracatinib 0.031 | sotrastaurin 0.004

UBR1 (UniProt Q8IWV7)
inactive: vemurafenib -0.018 | [1] 0.025 | barasertib 0.054 | [2] -0.032 | volasertib -0.07 | [3] 0.03 | [4] -0.046 | [5] -0.038 | saracatinib 0.019 | sotrastaurin 0.004

TUBD1 (UniProt Q9UJT1)
inactive: vemurafenib -0.056 | [1] 0.007 | barasertib -0.391 | [2] -0.066 | volasertib -0.023 | [3] -0.029 | [4] -0.044 | [5] 0.12 | saracatinib 0.015 | sotrastaurin 0.133

UBAC1 (UniProt Q9BSL1)
inactive: vemurafenib 0.008 | [1] 0.015 | barasertib -0.018 | [2] 0.001 | volasertib 0.026 | [3] -0.019 | [4] 0.107 | [5] -0.05 | saracatinib 0.007 | sotrastaurin -0.001

Two successive records already listed, quoted:
UBE2S (UniProt Q16763)
inactive: vemurafenib 0.016 | [1] 0.019 | barasertib 0.029 | [2] 0.014 | volasertib -0.019 | [3] -0.005 | [4] -0.059 | [5] 0.032 | saracatinib 0.024 | sotrastaurin 0.012

UAP1 (UniProt Q16222)
inactive: vemurafenib 0.009 | [1] -0.013 | barasertib 0.006 | [2] -0.071 | volasertib -0.04 | [3] 0.02 | [4] -0.027 | [5] 0.003 | saracatinib 0.031 | sotrastaurin 0.004

Additional results.

UBE2V2 (UniProt Q15819)
inactive: vemurafenib -0.017 | [1] 0.002 | barasertib 0.027 | [2] 0.025 | volasertib 0.035 | [3] -0.005 | [4] 0.007 | [5] 0.021 | saracatinib 0.009 | sotrastaurin -0.01

TUBG1 (UniProt P23258)
inactive: vemurafenib -0.021 | [1] 0.024 | barasertib 0.008 | [2] -0.013 | volasertib -0.044 | [3] -0.008 | [4] -0.017 | [5] 0.011 | saracatinib -0.018 | sotrastaurin 0.021

TUBB4B (UniProt P68371)
inactive: vemurafenib 0.006 | [1] 0.004 | barasertib -0.092 | [2] -0.032 | volasertib -0.034 | [3] 0.005 | [4] -0.134 | [5] -0.011 | saracatinib 0.03 | sotrastaurin -0.021

TXNL4B (UniProt Q9NX01)
inactive: vemurafenib -0.015 | [1] 0.03 | barasertib 0.976 | [2] -0.069 | volasertib 0.024 | [3] 0.112 | [4] -0.029 | [5] 0.022 | saracatinib 0.006 | sotrastaurin -0.073

TWSG1 (UniProt Q9GZX9)
inactive: vemurafenib -0.046 | [1] -0.008 | barasertib 0.166 | [2] 0.018 | volasertib 0.052 | [3] -0.099 | [4] 0.12 | [5] -0.079 | saracatinib -0.117 | sotrastaurin -0.022

UBAP2L isoform 5 (UniProt Q14157)
inactive: vemurafenib -0.002 | [1] 0.025 | barasertib 0.013 | [2] 0.023 | volasertib -0.006 | [3] 0.013 | [4] 0.028 | [5] -0.01 | saracatinib 0.03 | sotrastaurin -0.002

UBQLN1 (UniProt Q9UMX0)
inactive: vemurafenib 0.013 | [1] 0.011 | barasertib 0.204 | [2] 0.059 | volasertib 0.012 | [3] -0.068 | [4] -0.043 | [5] 0.014 | saracatinib -0.007 | sotrastaurin 0.035

TUBB (UniProt P07437)
inactive: vemurafenib 0.018 | [1] 0.003 | barasertib -0.051 | [2] -0.02 | volasertib -0.063 | [3] -0.017 | [4] -0.041 | [5] 0.004 | saracatinib 0.029 | sotrastaurin 0.017

UBL7 (UniProt Q96S82)
inactive: vemurafenib -0.005 | [1] -0.012 | barasertib 0.086 | [2] -0.029 | volasertib 0.017 | [3] -0.013 | [4] -0.032 | [5] -0.089 | saracatinib -0.014 | sotrastaurin -0.044

TUBA4A (UniProt P68366)
inactive: vemurafenib 0.003 | [1] -0.045 | barasertib 0.028 | [2] -0.023 | volasertib -0.056 | [3] 0.033 | [4] -0.05 | [5] 0.003 | saracatinib -0.036 | sotrastaurin -0.039

UBTF (UniProt P17480)
inactive: vemurafenib -0.024 | [1] 0.002 | barasertib 0.011 | volasertib -0.011 | [3] 0.002 | [4] 0.038 | [5] -0.067 | saracatinib 0.042 | sotrastaurin 0.023
active: [2] -0.291

TUBGCP2 isoform 4 (UniProt Q9BSJ2)
inactive: vemurafenib 0.02 | [1] 0.01 | barasertib 0.027 | [2] 0.001 | volasertib -0.049 | [3] 0.021 | [4] 0.078 | [5] -0.064 | saracatinib -0.035 | sotrastaurin 0

TUBB6 (UniProt Q9BUF5)
inactive: vemurafenib 0.007 | [1] 0.002 | barasertib -0.015 | [2] 0.003 | volasertib -0.068 | [3] -0.007 | [4] -0.019 | [5] 0.014 | saracatinib 0.032 | sotrastaurin -0.024

UBAP1 (UniProt Q9NZ09)
inactive: vemurafenib 0.031 | [1] -0.024 | barasertib 0.003 | [2] 0.063 | volasertib 0.024 | [3] 0.064 | [4] 0.008 | [5] -0.023 | saracatinib -0.008 | sotrastaurin -0.01

UBE2B (UniProt P63146)
inactive: vemurafenib -0.008 | [1] 0.013 | barasertib 0.075 | [2] -0.103 | volasertib -0.03 | [3] -0.019 | [4] -0.038 | [5] -0.04 | saracatinib -0.08 | sotrastaurin -0.021

TUBGCP5 (UniProt Q96RT8)
inactive: vemurafenib -0.023 | [1] -0.351 | barasertib -0.057 | [2] -0.204 | volasertib 0 | [3] 0.004 | [4] -0.06 | [5] 0.088 | saracatinib -0.075 | sotrastaurin 0.033

UCHL3 (UniProt P15374)
inactive: vemurafenib -0.033 | [1] -0.016 | barasertib 0.063 | [2] -0.063 | volasertib 0.01 | [3] 0.037 | [4] -0.102 | [5] 0.013 | saracatinib -0.003 | sotrastaurin 0.01
